# At least one compound was matched to its structure with a doubt left.
# System: HUVEC umbilical endothelium
# Experiment: Cytotoxicity normal tissue 72 hr
# Format: cell-based, human
smiles,measurement,value
Cn1nnc2c(C(N)=O)ncn2c1=O [Temozolomide],IC50,moderately sensitive

# Source: US20200246284A1 (Academia Sinica, priority 2015, published 2020)
